Assay results from the supplement of paper PMC3334620.
Over roughly 33,000 sequences, “E-score (-0.5 to 0.5)” has its median near -0.0014; the highest 2% begin near 0.25. This is one part of the list.

Target: T1, Cad1 (UniProt P24813)
T1 sequence: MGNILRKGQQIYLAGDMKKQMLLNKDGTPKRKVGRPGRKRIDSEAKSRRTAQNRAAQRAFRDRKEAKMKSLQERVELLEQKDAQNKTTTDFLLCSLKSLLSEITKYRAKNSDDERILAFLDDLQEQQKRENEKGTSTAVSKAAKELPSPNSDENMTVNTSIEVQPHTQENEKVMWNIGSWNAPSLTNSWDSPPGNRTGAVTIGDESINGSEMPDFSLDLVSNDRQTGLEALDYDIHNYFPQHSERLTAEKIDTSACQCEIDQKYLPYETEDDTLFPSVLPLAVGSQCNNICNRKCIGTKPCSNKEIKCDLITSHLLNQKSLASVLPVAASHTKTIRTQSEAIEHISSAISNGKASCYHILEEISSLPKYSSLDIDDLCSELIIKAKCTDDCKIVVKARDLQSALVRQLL
Test: PBM E-score (8-mer binding enrichment) (E-score (-0.5 to 0.5)); higher = stronger / more preferred TF binding
Conditions: protein concentration: 100 nM; construct: GST-full length
Method in brief: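 Detection of bound protein used fluorescent anti-GST, with scans normalised by masliner. The proteins were GST-tagged yeast transcription factors applied at about 100-200 nM to universal all-10-mer Agilent arrays made double-stranded by primer extension. Each ungapped eight-base word, pooled with its reverse complement, was scored with an E-score from the Universal PBM Analysis Suite.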

| Sequence | PBM E-score |
| --- | --- |
| ATGGGATA | -0.0986 |
| ACTGCTCA | 0.138 |
| GGTCCTTA | -0.0018 |
| AGATTCCG | 0.124 |
| GCGGGCCC | -0.157 |
| CCCTCTTC | -0.356 |
| ATTCCCAA | 0.159 |
| ACATTAAC | 0.137 |
| GTTTTTCA | 0.0774 |
| AGTTCCGC | 0.112 |
| ACGAGGAT | -0.074 |
| CTCCTTAC | -0.131 |
| AGCGTCCT | -0.0203 |
| GGCAGAAA | 0.18 |
| CGCTAGTC | -0.261 |
| CTCGTCTA | -0.013 |
| AAGTACAC | 0.00466 |
| ATAGGCCC | -0.15 |
| AAGCAATA | 0.109 |
| AACGGCTA | 0.00447 |
| GTCCTCAC | -0.0404 |
| AGTTGGGG | 0.0395 |

| Sequence | PBM E-score |
| --- | --- |
| CAAAAGGA | -0.119 |
| CGCACATA | -0.141 |
| CCAGGCCG | -0.0136 |
| AGAGAGCT | -0.287 |
| GACGAACA | -0.00348 |
| ATTCAAGA | 0.0376 |
| GAAACGAC | 0.102 |
| AAAAAAAC | 0.121 |
| ACCCCGTA | -0.0798 |
| GCTGCACA | -0.0662 |
| ACTTGAGG | -0.194 |
| CAAGGACG | -0.183 |
| ACCTAACA | 0.076 |
| AGACTTTA | -0.0331 |
| AGCACAGA | 0.162 |
| GAAATCTA | -0.00135 |
| ATGTCTGG | 0.0992 |
| AGAATTCT | 0.278 |
| CCTGTCGC | -0.1 |
| AGGGAATG | -0.188 |
| AGACAGTG | -0.00612 |
| CCTTTTTC | -0.0177 |

| Sequence | PBM E-score |
| --- | --- |
| GTAGTTTA | 0.181 |
| GAATAGCA | 0.0619 |
| TTATGCAA | 0.0783 |
| ATTGTACA | 0.106 |
| AAGTACGC | -0.0964 |
| ACGCTGGC | 0.0271 |
| AACAGTAC | 0.106 |
| CTTGAGGC | -0.225 |
| GTGACAGA | 0.144 |
| ACTGAACG | -0.115 |
| CAAAGGCC | -0.102 |
| ACGGGCCA | -0.0812 |
| CGCCGGCA | 0.125 |
| CCGACCCA | -0.0445 |
| GACTGTGC | -0.169 |
| CCCCTGCG | -0.274 |
| CCTTTAAC | 0.0365 |
| AATCCTTA | -0.116 |
| GAAGTCAA | 0.0175 |
| AGCCTTTC | -0.21 |
| ATTCAACA | -0.0203 |
| AAAAGCCT | -0.241 |

| Sequence | PBM E-score |
| --- | --- |
| ATAGTCAT | 0.0622 |
| ATTCGCGA | 0.195 |
| CCCCCCCG | -0.456 |
| CACGCTCC | -0.226 |
| CAGATATA | 0.179 |
| CGAATCCG | 0.121 |
| CAAGTATG | 0.0779 |
| TCGAGCGA | 0.104 |
| CCGCACAC | -0.219 |
| CAAATCAA | 0.152 |
| ACACAAAG | 0.0591 |
| AATTGTCC | 0.104 |
| ACAGTACA | 0.0552 |
| AGATCGGA | 0.0863 |
| CCTGATTA | 0.31 |
| CCGACTGA | -0.114 |
| AATAGGGT | 0.0291 |
| CCGACGCC | -0.0383 |
| CACACTCA | 0.194 |
| ATGTGGCG | -0.0179 |

Looked up one by one from above:

| Sequence | PBM E-score |
| --- | --- |
| CCGCACAC | -0.219 |
| ACACAAAG | 0.0591 |
| CCGACTGA | -0.114 |
| AGATCGGA | 0.0863 |
| CCGACGCC | -0.0383 |
